LdMetRS: 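Primary screen of methionyl-tRNA synthetase; the read-out is not stated. Target: Methionyl-tRNA synthetase (putative), Leishmania donovani (UniProt E9BF75). The test concentration is not given. Values are per cent inhibition. Of about 68,000 compounds tested this way, about 24 (0.035%) reached 50% or more in at least one test.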
Mtb heat-shock: 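Assay on Mycobacterium tuberculosis, filed only as a heat shock assay from Cornell; the read-out is not stated. The concentration is filed as 10 mM, unlikely as a test dose, so the dose is not known. Higher reads as stronger inhibition (inferred: compounds with an IC50 in retests scored well above the rest). Size under these conditions: about 69,000 compounds, about 930 of them at 50% or above in at least one test.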

Protein sequences, listed by entry. Tags and fused reporters are not part of them.
UniProt E9BF75, entry or part of it: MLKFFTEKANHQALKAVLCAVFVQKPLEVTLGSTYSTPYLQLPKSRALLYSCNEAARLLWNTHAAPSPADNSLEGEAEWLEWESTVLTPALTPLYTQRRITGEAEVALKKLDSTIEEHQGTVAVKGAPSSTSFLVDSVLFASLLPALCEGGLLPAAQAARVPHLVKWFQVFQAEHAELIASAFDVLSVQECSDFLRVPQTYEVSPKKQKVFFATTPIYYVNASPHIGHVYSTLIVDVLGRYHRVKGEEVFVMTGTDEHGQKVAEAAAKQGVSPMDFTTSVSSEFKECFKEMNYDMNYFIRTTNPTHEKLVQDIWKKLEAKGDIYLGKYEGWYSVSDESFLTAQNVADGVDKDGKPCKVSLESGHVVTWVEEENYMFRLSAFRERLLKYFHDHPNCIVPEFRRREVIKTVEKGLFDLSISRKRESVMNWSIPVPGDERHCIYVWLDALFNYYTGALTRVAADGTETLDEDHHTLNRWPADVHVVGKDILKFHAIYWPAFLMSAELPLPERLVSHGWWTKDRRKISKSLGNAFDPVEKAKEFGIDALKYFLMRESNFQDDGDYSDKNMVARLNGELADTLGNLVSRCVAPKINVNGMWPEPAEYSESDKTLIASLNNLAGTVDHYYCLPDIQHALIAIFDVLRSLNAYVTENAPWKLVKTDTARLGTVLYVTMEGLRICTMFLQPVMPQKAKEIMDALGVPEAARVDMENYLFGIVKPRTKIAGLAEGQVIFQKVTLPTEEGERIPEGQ

All values are in %. The record does not define 0% and 100%; most values in the screen are far below 50% and negative numbers occur (in some assays of this library far below -100). The compounds are a random part of those screened. A dash means the value is not listed here; it may have been measured.

compound,LdMetRS,Mtb heat-shock
Cl.O=C(c1cccnc1)N1CCC2(CC1)CNc1c(F)cccc12,-,4.233%
CN(Cc1ccc(Cl)s1)C1CCCN(c2cccnn2)C1 (stereo not drawn),9.859%,7.96%
CCC[C@H]1CN(CCS(C)(=O)=O)C[C@@H]1NC(=O)c1ccccn1,9.415%,16.09%
O=C(O)C(F)(F)F.c1ncn(Cc2cn3c(n2)CN(CC2CCCC2)CC3)n1,-,-21.18%
CCC1=N[C@@]2(CC[C@@H]3CN(CC)C[C@@H]32)C(=O)N1C,14.47%,-
CCN(Cc1cn(C)nc1-c1ccc2c(c1)OCCO2)CC1CCCO1 (stereo not drawn),18.12%,5.773%
Cn1cc(C(=O)N2CCCN(C3Cc4ccccc4C3)CC2)cn1,17.42%,4.399%
Cn1cc(-c2ncnc3c2CCN(C(=O)N2CCOCC2)CC3)cn1,7.807%,10.31%
O=C(O)C(F)(F)F.[H][C@@]12CCC(=O)N(c3cnn(C)c3)[C@]1([H])CCN2Cc1ccc(OC)cc1,-,-27.18%
O=C(NCc1cncc2c1CCN(Cc1cccs1)C2)C1CC1,5.226%,-
O=C(c1ccoc1)N1CC[C@H]2C[C@@H](c3ccncn3)O[C@@H]2C1,6.536%,-
CC(C)NC(=O)CC1COC2(CCN(Cc3ccsc3)CC2)C1 (stereo not drawn),11.86%,-
O=C(c1cscn1)N1CC[C@@H]2[C@@H]1CCN2CC1CCOC1 (stereo partly drawn),18.58%,-
CC(=O)N1Cc2ccccc2OC2(CCN(C(=O)C3CC3)CC2)C1,3.165%,-0.247%
COc1ccc(C(=O)NCc2ccon2)cc1F,6.863%,-0.2265%
CCc1ccsc1C(=O)NC(C#N)CC(C)C (stereo not drawn),9.524%,16.77%
Cc1nccn1-c1cccc(C2CCCN(C3CCCC3)C2)n1 (stereo not drawn),21.41%,-18.75%
O=C(O)C(F)(F)F.O=C(O)C(F)(F)F.[H][C@]12C[C@@H](C(=O)Nc3cccnc3)CO[C@@]1([H])CCN(CCC)C2,-,-23.39%
O=C(CN(Cc1cccnc1)CC1CCCO1)Nc1ccc(F)cc1 (stereo not drawn),10.34%,-9.189%
CSCCCN1CCCC1c1noc(C)n1 (stereo not drawn),29.59%,21.06%
COc1ccc(N2Cc3nc(N4CCCC4)ncc3C2=O)cc1Cl,11.9%,3.096%
COCCN1C=NC2(CCC(C(=O)Nc3ccc(C)cc3)CC2)C1=O (stereo not drawn),8.711%,-3.619%
Cc1nc(C2CCNCC2)cc(N(C)CCc2cn[nH]c2)n1,19.23%,-18.29%
Cc1cc(C2CCCN2Cc2cc(=O)n(C)c(=O)n2C)no1 (stereo not drawn),9.227%,-7.874%
Cc1nc(CNC(C(=O)N2CCOCC2)C(C)C)oc1C (stereo not drawn),3.623%,8.109%
Cn1cc(CN2C[C@@H]3[C@@H](C2)OCC(=O)N3Cc2ccncc2)cn1,13.3%,-
Cc1cc(C(=O)NC2CC(=O)N(C(C)C)C2=O)c(C)n1C(C)C (stereo not drawn),15.79%,-25.91%
CN(CCc1ncnn1-c1ccccc1Cl)C1CCS(=O)(=O)C1 (stereo not drawn),8.669%,-23.27%
CN1CCC(C(=O)N2CCCN(c3cccnn3)CC2)C1 (stereo not drawn),21.22%,-15.75%
COCC1CN(Cc2ccoc2)Cc2cn(CC3CCOCC3)nc21 (stereo not drawn),10.22%,4.942%
NC(=O)NCC(=O)N1C[C@H]2CC[C@@H]1CN(C1Cc3ccccc3C1)C2,13.01%,-
[H][C@]12CC[C@]([H])(CN(C(=O)c3cccnc3)C1)N(Cc1cccc(Cl)c1F)C2,-,6.166%
Cc1cc(C)nc(NC2CCN(CCOC(C)C)CC2)n1,17.14%,10.37%
[H][C@]12CN(CC)C(=O)[C@@]1([H])CN(S(=O)(=O)c1cccs1)C2,-,-12.98%
CC(C)Cc1noc(CC2CCS(=O)(=O)C2)n1 (stereo not drawn),12.99%,-136.4%
CCN(CC)Cc1cc(C(=O)N2CC(C)(C)[C@@](C)(O)C2)c(C)o1,3.064%,-18.05%
CCN(CC)CCNC(=O)CCc1c(C)nn(-c2cccc(Cl)c2)c1C,8.611%,38.89%
Cc1cnc(N)c(C(=O)C2CCN(C(=O)C3CCC3)CC2)c1,3.236%,-7.325%
Cc1occc1C(=O)N1CCCC2(CCN(c3ccccc3)C2=O)C1 (stereo not drawn),6.452%,-40.39%
CC(NC(=O)NCCNc1ncccn1)c1cccs1 (stereo not drawn),9.312%,-18.35%
CN(C)C(=O)COCc1nnc2n1CCN(Cc1ccoc1)C2,16.29%,-
CN(C)CCN1CC2(CCN(C(=O)c3cnccn3)CC2)OC1=O,7.711%,-6.682%
COc1ccc(CCN2CCc3c(nc(C4CC4)n3C)C2)cc1,9.312%,0.3473%
CC(C)c1nc(C2CCCN2C(=O)c2ccc3nncn3c2)no1 (stereo not drawn),9.157%,16.28%
Cc1ccc(C2(O)CCN(C(=O)CCn3c(C)cccc3=O)CC2)nc1,6.349%,9.584%
O=C(CCn1ncc2c(Cl)cccc21)NCC1CC1,2.764%,-9.892%
O=S(=O)(Nc1cnn(C2CCOCC2)c1)c1ccc(Br)cc1,11.27%,12.06%
Cc1ncc2c(n1)CN(Cc1ncc(C(C)(C)C)o1)CC2,30.4%,10.34%
O=C(CCNc1ncccn1)N1CCCC(n2cccn2)C1 (stereo not drawn),7.163%,-8.163%
Cc1cccc(CN2C[C@@H]3CN(C(=O)c4ccnnc4)C[C@@H]3C2=O)c1,17.78%,-
[H][C@@]12CCCCN(C)[C@]1([H])[C@@H](c1ccccc1)CCN2S(=O)(=O)N(CC)CC,-,-11.84%
Cc1cncc(C2CCCN2CC(N)=O)n1 (stereo not drawn),13.29%,-10.6%
Cc1sc2nc(CCN)nc(N3CCC(N4CCCC4)CC3)c2c1C,16.08%,-12.85%
Cc1ccc2c(c1)OC(C)CN2C(=O)c1c[nH]c(C)cc1=O (stereo not drawn),15.19%,4.588%
CS(=O)(=O)CCn1ccc(NC(=O)Cc2ccccc2Cl)n1,7.094%,-16.05%
CCCOc1ccc(C(=O)N2CC[C@H]3CC[C@@H](C2)N3)cc1Cl,14.44%,-
CC(NC(=O)NCCCOC1CCCCC1)c1nncn1C (stereo not drawn),14.29%,0.8037%
CC(C)[C@H](N)C(=O)N1CCCC(C2=Nc3ccccc3S(=O)(=O)N2)C1.Cl (stereo partly drawn),-,13.38%
COCCn1cnc(-c2cc(C(=O)NC(C)C)c3ccccn23)c1,12.32%,4.133%
Cc1cccc(-c2noc([C@@H]3C[C@@H](O)CN3CC3CCCCC3)n2)c1,7.492%,-50.75%
CC(=O)N1CCN(c2nc(C(F)(F)F)nc3sc(C)c(C)c23)CC1,17.83%,-14.95%
CNC(=O)c1ccc(C2CN(c3cc(C)nc(N)n3)CCO2)nc1 (stereo not drawn),10.47%,-21.16%
COc1c(CNCCc2c[nH]c3cc(F)ccc23)c(C)nn1C,22.06%,6.478%
CCOc1ccc(Cl)c(C(=O)NC(Cc2ccccc2)C(N)=O)n1 (stereo not drawn),0.5435%,-28.93%
CNc1cccc(C2CCCN(C(=O)c3ccncc3)C2)n1 (stereo not drawn),18.84%,3.641%
COC(=O)c1cccc(-c2nc(CC3CCN(C)CC3)no2)c1,9.091%,0.06933%
Cc1cc(NCC2CC(=O)Nc3ccccc32)nc(C)n1 (stereo not drawn),15.86%,-16.79%
COc1ccc(CNCc2cn(C)nc2C)cc1,2.432%,-2.065%
COc1ccc(OCc2cc(C(=O)N3CCN[C@H](C)C3)n[nH]2)c(Cl)c1,14.86%,-11.27%
CC(C)Cc1noc(C2CCCCN2C(=O)CCc2cnn(C)c2)n1 (stereo not drawn),22.65%,-27.2%
C[C@@H]1CN(C(=O)c2ccc(C#N)nc2)CC[C@@]1(O)C1CCOCC1,15.58%,2.098%
CCOc1nc2cnccc2n(CC(=O)Nc2ccccc2OC)c1=O,6.761%,7.732%
COc1ccc(CC(C)(O)CNC(=O)NCc2cccs2)cc1 (stereo not drawn),6.522%,0.9167%
Cc1ccsc1C(=O)Nc1cc(Br)c(=O)n(C)c1,7.971%,31.76%
CC(NC(=O)Nc1ccc(-c2csnn2)cc1)C(=O)NC(C)(C)C (stereo not drawn),14.85%,5.119%
Cn1ccc(CN2CCC3(CC2)CC(Nc2ccccn2)CO3)n1.O=C(O)C(F)(F)F (stereo not drawn),-,10.98%
CC(=O)N1CCN(C(=O)NCCCc2cn[nH]c2C)CC1,9.42%,12.01%
Cn1cc(CN2CCN(Cc3nccn3C)CC2)cn1,-1.115%,-14.57%

6 of the entries, repeated:

With CCN(CC)Cc1cc(C(=O)N2CC(C)(C)[C@@](C)(O)C2)c(C)o1 the screen gave LdMetRS: 3.064%; Mtb heat-shock: -18.05%.
With Cc1cc(C2CCCN2Cc2cc(=O)n(C)c(=O)n2C)no1 (stereo not drawn) the screen gave LdMetRS: 9.227%; Mtb heat-shock: -7.874%.
With O=C(CCNc1ncccn1)N1CCCC(n2cccn2)C1 (stereo not drawn) the screen gave LdMetRS: 7.163%; Mtb heat-shock: -8.163%.
With CC(C)[C@H](N)C(=O)N1CCCC(C2=Nc3ccccc3S(=O)(=O)N2)C1.Cl (stereo partly drawn) the screen gave Mtb heat-shock: 13.38%.
With CC(C)c1nc(C2CCCN2C(=O)c2ccc3nncn3c2)no1 (stereo not drawn) the screen gave LdMetRS: 9.157%; Mtb heat-shock: 16.28%.
With COCC1CN(Cc2ccoc2)Cc2cn(CC3CCOCC3)nc21 (stereo not drawn) the screen gave LdMetRS: 10.22%; Mtb heat-shock: 4.942%.

The values are deposited in ChEMBL (CHEMBL3988442, “University of Dundee, Small-Polar-MMV Screening Library” (2021)).